The target of this test is MBP-PAC1R (25–140)-His6 (human) (UniProt P41586). Nature of the test: SEC; S200 column in 10 mM Tris pH 7.5, 50 mM NaCl, 1 mM maltose, 1 mM EDTA; last step of the purification after disulphide shuffling; both purified.

By UniProt entry, the sequences of proteins in these tests, tags left out. Where a name states a change or a piece, a line headed by the entry shows the natural chain unless it says otherwise. Chains listed by the source or under a name are the forms on record and can include a tag or linker.
MBP-PAC1R (25–140)-His6 (P41586-3, form named): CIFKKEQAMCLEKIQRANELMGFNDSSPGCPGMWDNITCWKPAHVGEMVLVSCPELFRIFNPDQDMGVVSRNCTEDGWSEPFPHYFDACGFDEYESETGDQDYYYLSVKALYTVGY

Results are given in words; binding and its absence hold for the method and conditions named.

With “MBP-PAC1R (25–140)-His6 (from UniProt P41586-3 25-140) (domain or fragment)”, the binding entry is “no binding”.
